# In PubChem BioAssay AID504327 (National Center for Advancing Translational Sciences (NCATS), 2011):
# Protein sequences, listed by entry. Tags and fused reporters are not part of them.
# UniProt Q92830, whole entry, looked up: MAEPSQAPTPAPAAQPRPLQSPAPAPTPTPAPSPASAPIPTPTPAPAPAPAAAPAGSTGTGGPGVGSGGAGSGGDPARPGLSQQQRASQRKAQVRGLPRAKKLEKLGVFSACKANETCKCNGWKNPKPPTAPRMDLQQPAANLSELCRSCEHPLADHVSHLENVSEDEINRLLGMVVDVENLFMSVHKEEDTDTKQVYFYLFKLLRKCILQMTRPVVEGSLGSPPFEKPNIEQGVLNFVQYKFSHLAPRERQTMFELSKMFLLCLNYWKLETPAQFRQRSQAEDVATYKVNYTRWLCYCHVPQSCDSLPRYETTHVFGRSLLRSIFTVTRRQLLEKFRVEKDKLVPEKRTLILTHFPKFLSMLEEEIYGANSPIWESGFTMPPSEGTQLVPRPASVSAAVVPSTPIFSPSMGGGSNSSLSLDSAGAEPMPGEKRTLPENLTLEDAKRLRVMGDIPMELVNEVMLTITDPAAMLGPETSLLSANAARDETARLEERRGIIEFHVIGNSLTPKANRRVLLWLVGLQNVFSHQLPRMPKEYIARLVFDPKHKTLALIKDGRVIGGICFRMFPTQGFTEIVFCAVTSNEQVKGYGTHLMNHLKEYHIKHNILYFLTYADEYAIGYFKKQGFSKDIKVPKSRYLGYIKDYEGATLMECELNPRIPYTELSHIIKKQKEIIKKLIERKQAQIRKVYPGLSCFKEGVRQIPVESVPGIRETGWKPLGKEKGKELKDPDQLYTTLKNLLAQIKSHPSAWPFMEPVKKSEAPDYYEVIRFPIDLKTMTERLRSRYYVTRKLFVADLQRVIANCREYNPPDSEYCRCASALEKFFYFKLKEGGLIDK
# “And” between values parts separate entries of the source, which are not always exact repeats. Identical values can stand only once. Screen size: about 390,000 compounds; about 820 (0.21%) were called active. The inconclusive results got no clear call from the source; some entries with a clear call stand among them for comparison. The call rests on the fitted dose curve; in most records, active means well fitted inhibition curve with a large enough effect; inconclusive means small, poorly fitted or top-dose-only effect, or another doubt; inactive means no such curve, though single readings can be large or run the other way. Potencies of inconclusive entries are doubtful fits and often do not repeat.
# Target: Histone acetyltransferase KAT2A (Homo sapiens) (UniProt Q92830)
# Assay: qHTS Assay for Inhibitors of GCN5L2
# Details: GCN5L2 HAT assay, ThioGlo1 CoA-SH fluorescence; activity change, negative = inhibition: at 58.9 µM (top of the series) unless noted
# Text: Histone acetyltransferase (HAT) enzymes transfer a […] group from acetyl-coenzyme A to the epsilon-amino group of conserved lysine residues of N-terminal histone tails. Acetylation results in charge neutralization of this positively charged amino acid, decreasing interactions with the […] backbone and making the DNA more accessible for transcription. HATs have been recognized as an emerging drug target for treatment of cancer, diabetes, asthma, chronic obstructive pulmonary disease, cardiac disease, and viral infection. Protein identified with HAT activity include the […] like 2 (GCN5L2, a.ka. Histone acetyltransferase KAT2A) which acetylates histone H3 at Lys9, 14, 18, 13, and to lesser extent histones H4 and H2B. This activates transcription of the gene by modulating chromatin structure and installing the acetyllysine recognition mark for bromodomain-containing coactivator proteins.
# A quantitative high throughput screen was developed to identify small molecule inhibitors. The assay is based on the principle that it measures formation of reduced CoA with the pro-fluorescent maleimide derivative ThioGlo1 that becomes fluorescent upon reaction with the free thiol of CoA.
# A large number of artifacts are expected in this primary screen, compounded by the assay format (fluorescent artifacts) and by the high top concentration tested for each substance. This BioAssay data deposition should be used with caution, and counterscreen and secondary assay validation is essential since very few actives from the primary screen are expected to be true inhibitors of GCN5L2.
# [2] Yasgar, et al. Compound Management for Quantitative High-Throughput Screening. JALA. 2008 Apr;13(2):79-89.
# [3] Inglese, et al. Quantitative high-throughput screening: a titration-based approach that efficiently identifies biological activities in large chemical libraries. Proc Natl Acad Sci. 1;103(31):11473-8. 2006. PMID: 16864780
# NIH Molecular Libraries Probe Production Network [MLPCN]
# NIH Chemical Genomics Center [NCGC]
# Structural Genomics Consortium (SGC)
# To each well of a 1,536w plate, 3ul of GCN5L2 (final concentration 20nM, in 50mM HEPES, 0.1mM EDTA (pH 7.5), 0.01% Tween-20 buffer) are added using a Kalypsys dispenser. Only buffer is added to some wells as a control. A Kalypsys pin-tool transferred 23nl of library compound solution in DMSO to each well, as well as the control inhibit garcinol. . Following a 15 min incubation of enzyme with compounds at room temperature, 1ul mixture of ThioGlo1 (50uM final), H3(1-25) peptide (75uM final), and Acetyl-CoA (70uM final) is added. Plates are read immediately on the ViewLux (PerkinElmer) (Ex340nm/Em540nm) for a 0 min read, incubated for 20 min at room temperature, and read again on the ViewLux with the same settings. The initial read was carried out to identify compounds that are potentially fluorescent.
# On the % scale 0 is the no-effect control and ±100 the full control effect; potency means the concentration at half of the fitted maximal effect.
SMILES,"activity change, negative = inhibition",Potency
O=C1NC(=O)C2(Cc3ccccc3N3CCCC32)C(=O)N1Cc1ccccc1 (stereo not given),inactive: -4.65%,
CCCCC1(C2CCCC2)Cc2cc(OCCCC(=O)O)c(Cl)c(Cl)c2C1=O (stereo not given),,"inconclusive: 28.2 µM [inhibitor, single point]"
OCC(O)[C@H]1O[C@@H]2O[C@H](C(Cl)(Cl)Cl)O[C@@H]2[C@H]1O (stereo not given in full),,"inconclusive: 3.55 µM [inhibitor, partial curve]"
COC(=O)C1=C(c2ccc(F)cc2OCc2ccccc2)C[C@@H]2CC[C@H]1N2C(=O)NCc1ccco1,,"inconclusive: 25.1 µM [inhibitor, single point]"
C[C@@H]1O[C@H](C[N+](C)(C)C)CS1,,"inconclusive: 28.2 µM [inhibitor, partial curve]"
CC1CN(CCc2ccccc2)CC(C)O1 (stereo not given),,"inconclusive: 0.631 µM [inhibitor, single point]"
CC1(C)N2CC3([N+](=O)[O-])CN1CC([N+](=O)[O-])(C2)C3,inactive: -3.13%,
Cc1ccc(-n2c(O)c(C=NCc3ccccn3)c(=O)[nH]c2=S)cc1,,"inconclusive: 0.355 µM [inhibitor, partial curve, poor fit]"
C=C(Cl)CSC(=S)N(CC)CC,,"inconclusive: 22.4 µM [inhibitor, single point]"
CNC(=O)Oc1cccc2ccccc12,,"inconclusive: 35.5 µM [inhibitor, single point]"
O=C(/C=C/C=C/c1ccccc1)CC1(O)C(=O)Nc2ccccc21 (stereo not given),,"inconclusive: 2.82 µM [inhibitor, full curve, poor fit]"
COc1ccc2c(c1OC)C(=O)OC2C1c2cc3c(cc2CCN1C)OCO3 (stereo not given),,"inconclusive: 39.8 µM [inhibitor, single point]"
CCCCCCCCCOc1ccc2[nH]cc(CCN)c2c1,,"inconclusive: 31.6 µM [inhibitor, partial curve] and inconclusive: 28.2 µM [inhibitor, single point]"
CCCCC/C=C\C/C=C\C/C=C\C/C=C\CCCC(N)=O,inactive: -9.81%,
Cc1c(CC(=O)N2C[C@H]3C[C@@H](C2)c2cccc(=O)n2C3)c(=O)oc2c(C)c(O)ccc12,,"inconclusive: 12.6 µM [inhibitor, partial curve]"
O=C(O)c1cc(O)c(O)c(O)c1,,"inconclusive: 39.8 µM [inhibitor, single point]"
C#CCN(C)[C@@H](C)Cc1ccccc1,,active: 11.2 µM
CC(C)c1ccc(NC(=O)CCNC(=O)N2C[C@H]3C[C@@H](C2)c2cccc(=O)n2C3)cc1,,"inconclusive: 3.98 µM [inhibitor, single point]"
O=C1C2CC=CCC2C(=O)N1SC(Cl)(Cl)Cl (stereo not given),,"inconclusive: 39.8 µM [inhibitor, single point]"
CC(CCC(=O)O)C1CCC2C3CC[C@@H]4CCCC[C@@]4(C)C3CC[C@@]12C (stereo not given in full),,"inconclusive: 3.16 µM [inhibitor, full curve]"
CC1=CC(=O)NP(=O)(Oc2ccc3ccccc3c2)N1 (stereo not given),,active: 31.6 µM
CN1C[C@H](CNC(=O)OCc2ccccc2)C[C@@H]2c3cccc4c3c(cn4C)C[C@H]21,,"inconclusive: 28.2 µM [inhibitor, single point]"

SMILES,"activity change, negative = inhibition",Potency
CN1CCC(N(C)c2ncnc3ccc(Br)cc23)CC1,inactive: -17.8%,
CC(C)(C)N(NC(=O)c1ccccc1)C(=O)c1ccccc1,,"inconclusive: 7.08 µM [inhibitor, single point]"
COc1ccc(-c2cc(=NCCCCCC(=O)O)c3cc(C)ccc3o2)cc1,,"inconclusive: 31.6 µM [inhibitor, single point]"
Cc1ccc2c(c1)Cc1c(C(=O)NN3CCCCC3)nn(-c3ccc(Cl)cc3Cl)c1-2,,"inconclusive: 3.98 µM [inhibitor, full curve, poor fit]"
COc1ccc(OC)c(N=Cc2c(O)n(Cc3ccccc3)c(=S)[nH]c2=O)c1,,"inconclusive: 39.8 µM [inhibitor, single point]"
CCOc1ccc(-c2nc3ccc(-c4nc5ccc(N6CCN(C)CC6)cc5[nH]4)cc3[nH]2)cc1,,active: 11.2 µM
CN1CC=C(c2c[nH]c3ccccc23)CC1,inactive: -0.389%,
O=C(c1ccc2c(c1)OCO2)C1CCCN(Cc2ccccn2)C1 (stereo not given),,"inconclusive: 12.6 µM [inhibitor, partial curve, poor fit]"
O=C1NC(=S)N(Cc2ccco2)C(=O)/C1=C\c1cccs1,,active: 8.91 µM
COc1ccc(C(=O)O/N=C(/C(N)=O)P(=O)(OC(C)C)OC(C)C)cc1,,"inconclusive: 39.8 µM [inhibitor, single point]"
O=C(Oc1ccccc1)N1CCC2(CC1)CCN(C(c1ccccc1)c1ccccc1)CC2,inactive: -7.42%,
C[C@@H]1O[C@@H](O[C@H]2C[C@@H](O)[C@]3(CO)[C@@H]4C(CC[C@]3(O)C2)[C@@]2(O)CC[C@H](C3COC(=O)C3)[C@@]2(C)C[C@H]4O)[C@H](O)[C@H](O)[C@H]1O (stereo not given in full),inactive: -0.99%,
COc1ccc(-c2cc(=NCCC(=O)O)c3cc(C)ccc3o2)cc1,,"inconclusive: 35.5 µM [inhibitor, single point]"
O=C(c1cccn2c(=O)c3ccccc3nc12)N1CCC2(CC1)OCCO2,,"inconclusive: 31.6 µM [inhibitor, single point]"
O=C(COc1ccc2ccccc2c1)N1CCN(Cc2ccncc2)CC1,inconclusive: -88.7% [inhibitor] [at 0.501 µM],
CC[C@@H](CO)NC(=O)[C@@H]1C=C2c3cccc4c3c(cn4C)C[C@H]2N(C)C1,,"inconclusive: 25.1 µM [inhibitor, partial curve]"
Cc1ccc(/C(CSc2nccn2-c2ncc(C(F)(F)F)cc2Cl)=N\O)cc1,,"inconclusive: 0.631 µM [inhibitor, single point]"
c1ccc(-c2nc(N3CCOCC3)s[n+]2-c2ccccc2)cc1,,"inconclusive: 39.8 µM [inhibitor, single point]"
CCn1cc(C(=O)O)c(=O)c2cc(F)c(N3CCNCC3)cc21,,"inconclusive: 15.8 µM [inhibitor, single point]"
CC[C@H](C)/C=C(C)/C=C/C1=CC2=C(Cl)C(=O)[C@](C)(OC(C)=O)C(=O)C2=CO1,,"inconclusive: 39.8 µM [inhibitor, single point]"
Cc1cc(=O)oc2c3c(cc(OCC(=O)N4CCC[C@H]4C(=O)O)c12)OC(C)(C)CC3,,"inconclusive: 31.6 µM [inhibitor, partial curve]"

SMILES,"activity change, negative = inhibition",Potency
Nc1ccc([N+](=O)[O-])cc1,,"inconclusive: 39.8 µM [inhibitor, single point]"
O=C(Nc1ccccc1OC(=O)N1CCCCC1)N1CCCCC1,inactive: 1.43%,
Cc1cccc(NC(=O)N2CC3CC(C2)c2cccc(=O)n2C3)c1 (stereo not given),,"inconclusive: 22.4 µM [inhibitor, partial curve, poor fit]"
OCC(Br)CBr (stereo not given),,"inconclusive: 39.8 µM [inhibitor, single point]"
O=[N+]([O-])c1ccc(-c2[se]c3ccccc3c2I)cc1,,active: 25.1 µM
COc1cc(-c2ccc(N)c(OC)c2)ccc1N,inactive: -8.87%,
CCCCn1c(N)c(C(=O)OCC2CCCO2)c2nc3ccccc3nc21 (stereo not given),,"inconclusive: 31.6 µM [inhibitor, partial curve]"
CN1CCN(C(=O)COc2ccc(S(=O)(=O)NC3CCCCC3)cc2Cl)CC1,,"inconclusive: 0.316 µM [inhibitor, full curve, poor fit]"
CCOP(=O)(OCC)C1(C(=O)O)CCCC1,,"inconclusive: 1.12 µM [inhibitor, full curve, poor fit]"
CS/C(N)=C(C#N)/C(C#N)=C(\N)SC,,"inconclusive: 31.6 µM [inhibitor, single point]"
Fc1ccc(Cn2nnnc2C(c2ccc(Cl)cc2)N2CC=C(c3ccc(F)cc3)CC2)cc1 (stereo not given),inactive: -11.6%,
CC[C@@H](CO)Nc1nc(NCc2ccccc2)c2ncn(C(C)C)c2n1,,"inconclusive: 35.5 µM [inhibitor, single point]"
CC(C)=CCCC1(C)C=Cc2c(O)c3c(c(CC=C(C)C)c2O1)OC12C(=CC4CC1C(C)(C)OC2(C/C=C(/C)C(=O)O)C4=O)C3=O (stereo not given),,active: 31.6 µM
N=C1/C(=C\c2ccc(OC(=O)c3ccccc3Cl)cc2)C(=O)N=C2SC(N3CCOCC3)=NN12,,"inconclusive: 39.8 µM [inhibitor, partial curve]"
CCOC(=O)C1(c2ccccc2)CCN(CCC(=O)Nc2cccc(Br)c2)CC1,inactive: -2.68%,
CC[N+](C)(CC)CCC[n+]1c(-c2ccccc2)c2cc(N)ccc2c2ccc(N)cc21,,"inconclusive: 11.2 µM [inhibitor, single point] and inconclusive: 20 µM [inhibitor, partial curve]"
C[C@H]1CC[C@@]2(C)[C@@H](CC[C@@H]3[C@@H]2CC[C@]2(C)[C@@H](O)CC[C@@H]32)C1,inactive: -21.2%,
C[N+]1([O-])[C@@H]2CC(OC(=O)[C@H](CO)c3ccccc3)C[C@H]1[C@@H]1O[C@@H]12 (stereo not given in full),inactive: 2.91%,
CCCCCn1c(=O)c(C(=O)Nc2cccc(C)n2)c(O)c2ccccc21,,"inconclusive: 0.708 µM [inhibitor, full curve]"
NC(CCCCCP(=O)(O)O)C(=O)O (stereo not given),,"inconclusive: 35.5 µM [inhibitor, single point]"
CN1C(=O)C(=Cc2ccc(N(C)C)c([N+](=O)[O-])c2)C(=O)N(C)C1=O,inactive: -4.47%,
